Experiment: general procedure: Fmoc solid-phase peptide synthesis; 2-chlorotrityl chloride resin (Fmoc-Lys(Boc)-O-2-CTC resin); HATU/DIEA (or HBTU, TBTU)

| Substance | conjugation yield (conjugation step) | step yield (late stage modification step) |
| --- | --- | --- |
| (10S,13S,16S,19S,22S,25R)-10-(4-((6-amino-2-(butylamino)-8-hydroxy-9H-purin-9-yl) methyl)phenylcarbamoyl)-25-(tert-butoxycarbonylamino)-13,16,19-tris(4-(tert-butoxy carbonylamino)butyl)-22-(hydroxymethyl)-2,2-dimethyl-4,12,15,18,21,24-hexaoxo-3-oxa-27-thia | yield 47% |  |
| (2S,5S,8S,11S,14S,17R)-17-amino-5-(4-(4-((6-amino-2-(butylamino)-8-hydroxy-9H-purin-9-yl)methyl)benzamido)butyl)-2,8,11-tris(4-aminobutyl)-14-(hydroxymethyl) -4,7,10,13,16,24-hexaoxo-21-(palmitoyloxy)-23-oxa-19-thia-3,6,9,12,15-pentaaza nonatriacontan-1-oic acid |  | yield 98% |

From patent EP2769738B1 (Invivogen, priority 2013, dated 2014)
